Measured values from PMC10641233, “The C-terminal domain of the antiamyloid chaperone DNAJB6 binds to amyloid-β peptide fibrils and inhibits secondary nucleation” (The Journal of Biological Chemistry, 2023).
Results are given in words; binding and its absence hold for the method and conditions named. Some entries that bind do so weakly or less than the wild type.

Target: C-terminal domain (CTD) of DNAJB6 (human)
Test: native MS; non-mixed samples of CTD or CTD STA, 200 mM ammonium acetate pH 6.8, 10-25 µM, nano-electrospray, source temperature 25 °C; both purified

binding: binds weakly
B1: C-terminal domain (CTD) of DNAJB6 (domain or fragment)
chain: MNFKSISTSTKMVNGRKITTKRIVENGQERVEVEEDGQLKSLTINGKEQLLRLDNK
